Measurements reported in PubChem BioAssay AID493246 (Drosophila RNAi Screening Center, 2011).
The deposit covers about 21,000 reagents; below is a random part of those with a known target gene and a result. Over the whole deposit, 429 (2%) were called active. 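Values are raw and not normalised between plates; calls rest on per-plate z-scores that were not deposited.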 Entries without a mark were called inactive. Names joined by + are all predicted targets of the reagent. Not stated in the record: the amount of reagent, the time to read-out.

Test: 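Genome-wide search for dsRNAs that reduce cell number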 (primary screen)
System: Drosophila Kc and S2R+ cells
Reagents: long dsRNA against Drosophila genes
Measurement: 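Cell number per well after knock-down, printed as raw plate values; calls were based on per-plate z-scores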
Scale: Kc cell number and S2R+ cell number: higher = more cells remaining
Rule for the call: 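Active when the per-plate z-score of cell number is 3 or more in the direction of fewer cells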

The opening 2 records as a preview:
no.	Gene	DRSC id	Kc cell number, rep 1	Kc cell number, rep 2	S2R+ cell number, rep 1	S2R+ cell number, rep 2
1	CG31926	DRSC00295	1.58e6	1.63e6	1.10e6	1.26e6
2	CG18788	DRSC02697	1.53e6	1.68e6	1.18e6	1.29e6

Main list, repeating the preview:
no.	Gene	DRSC id	Kc cell number, rep 1	Kc cell number, rep 2	S2R+ cell number, rep 1	S2R+ cell number, rep 2
1	CG31926	DRSC00295	1.58e6	1.63e6	1.10e6	1.26e6
2	CG18788	DRSC02697	1.53e6	1.68e6	1.18e6	1.29e6
3	mmd	DRSC19672	1.75e6	1.81e6	1.04e6	1.20e6
4	mmd	DRSC19673	1.66e6	1.72e6	1.11e6	1.24e6
5	mmd	DRSC20161	1.61e6	1.60e6	1.10e6	1.24e6
6	Dad1	DRSC02263	1.52e6	1.64e6	1.28e6	1.41e6
7	Rap2l	DRSC04646	1.72e6	1.84e6	1.23e6	1.34e6
8	aft	DRSC07576	1.29e6	1.34e6	1.14e6	1.19e6
9	wol	DRSC03077	1.42e6	1.44e6	5.46e5	9.84e5
10	CG14282	DRSC14763	1.42e6	1.37e6	1.08e6	1.14e6
11	CG3556	DRSC18309	6.09e5		9.04e5	
12	v	DRSC20383	5.59e5		8.54e5	
13	CG9970	DRSC08644	1.58e6	1.43e6	1.08e6	1.19e6
14	mRpL13	DRSC02076	1.41e6	1.59e6	1.13e6	3.06e5
15	Bruce	DRSC16015	1.69e6	1.58e6	1.20e6	1.29e6
16	Gr10b	DRSC19477	1.57e6	1.51e6	1.08e6	1.21e6
17	Nt5c	DRSC06711	1.51e6	1.60e6	9.58e5	9.39e5
18	Rab8	DRSC11261	1.69e6	1.79e6	1.33e6	1.29e6
19	CG3652	DRSC00624	1.67e6	1.61e6	1.12e6	1.23e6
20	Rpp20 + CG33932	DRSC19467	1.57e6	1.60e6	1.04e6	1.17e6
21	CG15254	DRSC01870	1.31e6	1.33e6	1.02e6	1.16e6
22	CAH15	DRSC04534	1.50e6	1.67e6	1.42e6	3.16e5
23	CG4382	DRSC02743	1.54e6	1.57e6	1.22e6	1.36e6
24	CG31937	DRSC00514	1.41e6	1.38e6	1.17e6	1.17e6
